Assay [1] concerns the target T1, human serum albumin (HSA) (Homo sapiens, UniProt P02768). Particulars: dose-response, 500 nM Red Mega 500, 0.2 mg/mL HSA.
The subject of assay [2] is HSA. The conditions noted are these: cited from earlier work.
Assay [3] deals with T1, human serum albumin (HSA). Particulars: ITC. A general note: Isothermal titration calorimetry measures the heat released or taken up as one component is titrated into another.

Chains of the proteins cited; added tags and fusions are not shown. Residues count along the entry.
UniProt P02768, 25-609: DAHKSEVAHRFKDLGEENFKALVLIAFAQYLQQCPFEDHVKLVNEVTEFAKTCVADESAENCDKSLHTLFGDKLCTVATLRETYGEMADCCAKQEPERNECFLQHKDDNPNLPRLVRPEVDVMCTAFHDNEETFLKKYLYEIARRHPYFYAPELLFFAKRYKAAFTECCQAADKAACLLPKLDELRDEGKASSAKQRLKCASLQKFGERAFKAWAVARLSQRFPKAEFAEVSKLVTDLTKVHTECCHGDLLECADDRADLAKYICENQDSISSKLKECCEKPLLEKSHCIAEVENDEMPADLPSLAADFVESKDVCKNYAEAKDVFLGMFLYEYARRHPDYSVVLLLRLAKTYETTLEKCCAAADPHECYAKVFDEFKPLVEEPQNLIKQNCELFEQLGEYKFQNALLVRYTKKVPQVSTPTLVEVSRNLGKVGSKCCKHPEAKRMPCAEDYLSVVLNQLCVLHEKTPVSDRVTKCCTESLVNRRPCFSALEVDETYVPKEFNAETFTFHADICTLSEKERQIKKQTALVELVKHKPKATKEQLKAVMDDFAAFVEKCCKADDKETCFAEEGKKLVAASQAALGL

On to `COc1ccc2cc([C@H](C)C(=O)O)ccc2c1` [naproxen], for which the “efficacy of inhibition of HSA–Red Mega 500 binding” value in assay [1] is on record as “comparable to piroxicam”. Further, the “efficacy in HSA binding assay” value in assay [2] is recorded as “large efficacy”. Moreover, the “heat generated upon binding” value in assay [3] came out at 52.8 ± 2.2 kcal/mol.

The values above are taken from article PMC3959589 (Analytical and bioanalytical chemistry, 2014).
